Results are given in words; binding and its absence hold for the method and conditions named. Binding seen in cells or lysates may run through a third protein. Tags and fused reporters may be left off the sequences shown.
Molecular target: full-length Diaph3 with the DD domain deleted (mouse) (UniProt Q9Z207)
Assay: co-IP; HEK293T cells cotransfected, harvested 48 h later; lysate incubated with Flag beads at 4 °C overnight, washed 3 to 4 times with lysis buffer; Western blot

- binding: no binding
Binder: DETGVMDSLLEALQSGAAFRDRRKRTPKLKD (domain or fragment, UniProt Q9Z207 1036-1066) [Diaph3 DAD-HA]
